According to doi:10.1101/2025.02.26.640344:
No constants are given. Whether binding was seen depends on the method and setting. For some of these results: In cells and extracts the contact can be indirect. Some results given as binding are weak or reduced against the parent protein; the word gives no strength. For some of these results: Where a sequence is shown, tags or fusion partners need not be part of it. Blank lines part the entries; values can stand above or below the binder they belong to.

Chains of the proteins cited; added tags and fusions are not shown.
UniProt Q9QZL0, whole entry: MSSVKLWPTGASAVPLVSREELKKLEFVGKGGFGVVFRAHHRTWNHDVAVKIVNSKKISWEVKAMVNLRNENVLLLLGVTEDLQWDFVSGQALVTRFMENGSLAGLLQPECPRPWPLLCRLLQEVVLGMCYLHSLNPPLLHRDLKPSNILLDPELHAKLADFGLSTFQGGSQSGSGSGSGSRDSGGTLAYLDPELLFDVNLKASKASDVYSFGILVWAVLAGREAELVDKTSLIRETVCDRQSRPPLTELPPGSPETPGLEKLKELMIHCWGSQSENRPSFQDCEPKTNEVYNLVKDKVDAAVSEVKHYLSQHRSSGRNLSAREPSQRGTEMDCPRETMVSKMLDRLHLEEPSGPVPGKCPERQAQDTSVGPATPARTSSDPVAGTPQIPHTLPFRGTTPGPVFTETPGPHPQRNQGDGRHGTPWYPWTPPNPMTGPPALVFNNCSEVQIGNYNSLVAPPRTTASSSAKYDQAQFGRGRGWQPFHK

How the values were obtained:
[1] = target: T1, N-terminal V5-tagged MLKL, in PKLC-RIPK3^2×Fv cells (UniProt Q9D2Y4); assay: SEC
T1 sequence: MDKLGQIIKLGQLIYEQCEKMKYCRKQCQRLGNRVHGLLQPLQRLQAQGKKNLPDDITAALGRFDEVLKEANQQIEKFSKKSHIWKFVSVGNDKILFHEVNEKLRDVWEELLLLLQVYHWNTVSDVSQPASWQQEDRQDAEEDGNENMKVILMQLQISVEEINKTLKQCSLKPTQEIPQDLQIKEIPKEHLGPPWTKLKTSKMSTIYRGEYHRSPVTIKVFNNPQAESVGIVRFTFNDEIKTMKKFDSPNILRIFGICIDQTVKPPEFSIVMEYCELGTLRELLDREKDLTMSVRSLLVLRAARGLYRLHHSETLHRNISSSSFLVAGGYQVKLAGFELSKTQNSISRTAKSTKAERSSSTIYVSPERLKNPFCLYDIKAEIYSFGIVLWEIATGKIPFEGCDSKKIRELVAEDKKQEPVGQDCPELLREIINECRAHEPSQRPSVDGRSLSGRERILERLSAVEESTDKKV

[2] = target: Flag-RIPK3, doxycycline-inducible, in PKLC-RIPK3^Tet-on cells (UniProt Q9QZL0); assay: co-IP
[3] = target: Flag-RIPK3, doxycycline-inducible, in PKLC-RIPK3^Tet-on cells, Q9QZL0; assay: co-IP; conditions: remark: other sources report otherwise
[4] = target: T1, N-terminal V5-tagged MLKL, in PKLC-RIPK3^2×Fv cells; assay: co-IP

B1: N-terminal V5-tagged MLKL, in PKLC-RIPK3^2×Fv cells (protein, UniProt Q9D2Y4 1-472)
chain: MDKLGQIIKLGQLIYEQCEKMKYCRKQCQRLGNRVHGLLQPLQRLQAQGKKNLPDDITAALGRFDEVLKEANQQIEKFSKKSHIWKFVSVGNDKILFHEVNEKLRDVWEELLLLLQVYHWNTVSDVSQPASWQQEDRQDAEEDGNENMKVILMQLQISVEEINKTLKQCSLKPTQEIPQDLQIKEIPKEHLGPPWTKLKTSKMSTIYRGEYHRSPVTIKVFNNPQAESVGIVRFTFNDEIKTMKKFDSPNILRIFGICIDQTVKPPEFSIVMEYCELGTLRELLDREKDLTMSVRSLLVLRAARGLYRLHHSETLHRNISSSSFLVAGGYQVKLAGFELSKTQNSISRTAKSTKAERSSSTIYVSPERLKNPFCLYDIKAEIYSFGIVLWEIATGKIPFEGCDSKKIRELVAEDKKQEPVGQDCPELLREIINECRAHEPSQRPSVDGRSLSGRERILERLSAVEESTDKKV
binding [1]: binds

B2: MLKL, endogenous in PKLC cells (protein, UniProt Q9D2Y4 1-472)
chain: MDKLGQIIKLGQLIYEQCEKMKYCRKQCQRLGNRVHGLLQPLQRLQAQGKKNLPDDITAALGRFDEVLKEANQQIEKFSKKSHIWKFVSVGNDKILFHEVNEKLRDVWEELLLLLQVYHWNTVSDVSQPASWQQEDRQDAEEDGNENMKVILMQLQISVEEINKTLKQCSLKPTQEIPQDLQIKEIPKEHLGPPWTKLKTSKMSTIYRGEYHRSPVTIKVFNNPQAESVGIVRFTFNDEIKTMKKFDSPNILRIFGICIDQTVKPPEFSIVMEYCELGTLRELLDREKDLTMSVRSLLVLRAARGLYRLHHSETLHRNISSSSFLVAGGYQVKLAGFELSKTQNSISRTAKSTKAERSSSTIYVSPERLKNPFCLYDIKAEIYSFGIVLWEIATGKIPFEGCDSKKIRELVAEDKKQEPVGQDCPELLREIINECRAHEPSQRPSVDGRSLSGRERILERLSAVEESTDKKV
binding [2]: binds

More lines, now with the values ahead:

binding [3]: binds
B3: RIPK1, endogenous in PKLC cells, Q60855 1-656 (protein)
chain: MQPDMSLDNIKMASSDLLEKTDLDSGGFGKVSLCYHRSHGFVILKKVYTGPNRAEYNEVLLEEGKMMHRLRHSRVVKLLGIIIEEGNYSLVMEYMEKGNLMHVLKTQIDVPLSLKGRIIVEAIEGMCYLHDKGVIHKDLKPENILVDRDFHIKIADLGVASFKTWSKLTKEKDNKQKEVSSTTKKNNGGTLYYMAPEHLNDINAKPTEKSDVYSFGIVLWAIFAKKEPYENVICTEQFVICIKSGNRPNVEEILEYCPREIISLMERCWQAIPEDRPTFLGIEEEFRPFYLSHFEEYVEEDVASLKKEYPDQSPVLQRMFSLQHDCVPLPPSRSNSEQPGSLHSSQGLQMGPVEESWFSSSPEYPQDENDRSVQAKLQEEASYHAFGIFAEKQTKPQPRQNEAYNREEERKRRVSHDPFAQQRARENIKSAGARGHSDPSTTSRGIAVQQLSWPATQTVWNNGLYNQHGFGTTGTGVWYPPNLSQMYSTYKTPVPETNIPGSTPTMPYFSGPVADDLIKYTIFNSSGIQIGNHNYMDVGLNSQPPNNTCKEESTSRHQAIFDNTTSLTDEHLNPIRENLGRQWKNCARKLGFTESQIDEIDHDYERDGLKEKVYQMLQKWLMREGTKGATVGKLAQALHQCCRIDLLNHLIRASQS

binding [4]: binds
B4: Caspase-8, endogenous in PKLC cells (protein, UniProt O89110 1-480)
chain: MDFQSCLYAIAEELGSEDLAALKFLCLDYIPHKKQETIEDAQKLFLRLREKGMLEEGNLSFLKELLFHISRWDLLVNFLDCNREEMVRELRDPDNAQISPYRVMLFKLSEEVSELELRSFKFLLNNEIPKCKLEDDLSLLEIFVEMEKRTMLAENNLETLKSICDQVNKSLLGKIEDYERSSTERRMSLEGREELPPSVLDEMSLKMAELCDSPREQDSESRTSDKVYQMKNKPRGYCLIINNHDFSKAREDITQLRKMKDRKGTDCDKEALSKTFKELHFEIVSYDDCTANEIHEILEGYQSADHKNKDCFICCILSHGDKGVVYGTDGKEASIYDLTSYFTGSKCPSLSGKPKIFFIQACQGSNFQKGVPDEAGFEQQNHTLEVDSSSHKNYIPDEADFLLGMATVKNCVSYRDPVNGTWYIQSLCQSLRERCPQGDDILSILTGVNYDVSNKDDRRNKGKQMPQPTFTLRKKLFFPP
